Article PMC4494927, “Discovery of a small molecule targeting SET-PP2A interaction to overcome BCR-ABLT315I mutation of chronic myeloid leukemia” (Oncotarget, 2015)

System: K562 cells
Test: Cytotoxicity assay (CellTiter-Glo)
Type: cell-based
Details: Homo sapiens, 72 h, cell viability
Procedure: Twenty types of tumor cell lines were seeded at 4000 cells per well in 96-well plates. […] Cell viability was measured with the CellTiter-Glo Luminescent Cell Viability Assay (Promega) according to the manufacturer's instructions. Luminescence was measured using an EnVision Multilabel Plate Reader (Perkin-Elmer). The cytotoxicity of TGI1002 was expressed as the percentage of luminescence relative to that of untreated cells.

Compound: Cc1ccc(NC(=O)c2ccc(CN3CCN(C)CC3)cc2)cc1Nc1nccc(-c2cccnc2)n1 [imatinib, reference compound]
- IC50: 310 ± 10 nM
